Results: patent publication US20250185657A1, “PEST CONTROLLING AGENT” (priority 2022, published 2025)
Some entries share one result that the patent states for a list of compounds. For at least one compound, name, drawing or mass did not settle the structure.

Columns and labels:
[1] = test system: Diamondback Moth (Plutella xylostella); test: Diamondback moth control test (leaf piece dipping treatment); assay type: in vivo; details: 200 ppm, cabbage leaf piece dipped, third instar, five days after the treatment, 25° C.
Procedure: (§1) The insect mortality rate and the feeding damage prevention effect shown in the Biological Test Examples were calculated based on the following expression.
Biological Test Example 3: Diamondback Moth (Plutella xylostella) Control Test (Leaf Piece Dipping Treatment)
(§2) A cabbage leaf was cut into a piece having a diameter of 5.0 cm, and this cabbage leaf piece was immersed in 20 mL of a diluted solution of the test compound diluted to 200 ppm, and air-dried. After air-drying, the cabbage leaf piece was placed in a plastic cup, 10 third instar diamondback moth nymphs were released thereinto, the cup was covered with a lid, and the nymphs were reared in a constant temperature chamber at 25° C.

[2] = test system: Tobacco Cutworm (Spodoptera litura); test: Tobacco cutworm control test (leaf piece dipping treatment); assay type: in vivo; details: 200 ppm, cabbage leaf piece dipped, second instar larvae, five days after the treatment, 25° C.
Procedure: as §1
Biological Test Example 5: Tobacco Cutworm (Spodoptera litura) Control Test (Leaf Piece Dipping Treatment)
as §2, with “5 second” for “10 third”, “tobacco cutworm larvae” for “diamondback moth nymphs”, “larvae” for “nymphs”

CCS(=O)(=O)c1cc(-c2ccc(OC(F)(F)F)cc2)cnc1-c1noc(=O)n1-c1ccc(S(=O)(=O)C(F)(F)F)cc1 [Compound 62]
insect mortality rate [1]: ≥ 80%
insect mortality rate [2]: ≥ 80%

CCS(=O)(=O)c1cc(-c2ccc(OC(F)(F)F)cc2)cnc1-c1noc(=O)n1-c1nccc(C(F)(F)F)n1 [Compound 205]
insect mortality rate [1]: ≥ 80%

CCS(=O)(=O)c1cc(-c2ccc(F)cc2)cnc1-c1noc(=O)n1-c1cc(C(F)(F)F)cc(Cl)n1 [Compound 74]
insect mortality rate [1]: ≥ 80%
insect mortality rate [2]: ≥ 80%

CCS(=O)(=O)c1c(-c2noc(=O)n2-c2ccc(C(F)(F)F)cn2)ncc2ccc(Cl)cc12 [Compound 156]
insect mortality rate [1]: ≥ 80%
insect mortality rate [2]: ≥ 80%

CCS(=O)(=O)c1cc(-c2ccc(Cl)cc2)cnc1-c1noc(=O)n1-c1cc(F)c(C(F)(F)F)cn1 [Compound 182]
insect mortality rate [1]: ≥ 80%
insect mortality rate [2]: ≥ 80%

CCSc1cc(-c2ccc(OC(F)(F)F)cc2)cnc1-c1noc(=O)n1-c1cc(C(F)(F)F)ccn1 [Compound 143]
insect mortality rate [1]: ≥ 80%
insect mortality rate [2]: ≥ 80%

CCS(=O)(=O)c1cc2cc(C#N)ccc2nc1-c1noc(=O)n1-c1ccc(C(F)(F)F)cn1 [Compound 149]
insect mortality rate [1]: ≥ 80%
insect mortality rate [2]: ≥ 80%

CCS(=O)(=O)c1cc(-c2ccc(F)cc2)cnc1-c1noc(=O)n1-c1cccc(C(F)(F)F)n1 [Compound 40]
insect mortality rate [1]: ≥ 80%
insect mortality rate [2]: ≥ 80%

CCS(=O)(=O)c1cc(-c2ccc(OC(F)(F)F)cc2)cnc1-c1noc(=O)n1-c1ccc(C(F)(F)C(F)(F)F)cn1 [Compound 17]
insect mortality rate [1]: ≥ 80%
insect mortality rate [2]: ≥ 80%

CCS(=O)(=O)c1cc(-c2ccc(F)cc2)cnc1-c1noc(=O)n1-c1cc(Cl)c(I)cn1 [Compound 79]
insect mortality rate [1]: ≥ 80%
insect mortality rate [2]: ≥ 80%

CCS(=O)(=O)c1cc(-c2ccc(F)cc2)cnc1C1=NOCC(=O)N1c1ccc(C(F)(F)F)cn1 [Compound 63]
insect mortality rate [1]: ≥ 80%

CCS(=O)(=O)c1cc(-c2ccc(OC(F)(F)F)cc2)c(C)nc1-c1noc(=O)n1-c1cc(C(F)(F)C(F)(F)F)ccn1 [Compound 70]
insect mortality rate [1]: ≥ 80%
insect mortality rate [2]: ≥ 80%

CCS(=O)(=O)c1cc(-c2ccc(OC(F)(F)F)cc2)cnc1-c1noc(=O)n1-c1c(C(F)(F)F)c(C(F)(F)C(F)(F)F)nn1C [Compound 89]
insect mortality rate [1]: ≥ 80%
insect mortality rate [2]: ≥ 80%

CCS(=O)(=O)c1cc(-c2cccc(F)c2)cnc1-c1noc(=O)n1-c1cc(C(F)(F)F)ccn1 [Compound 46]
insect mortality rate [1]: ≥ 80%
insect mortality rate [2]: ≥ 80%

CCS(=O)(=O)c1sc(-c2ccc(F)cc2)nc1-c1noc(=O)n1-c1ccc(C(F)(F)F)cn1 [Compound 138]
insect mortality rate [1]: ≥ 80%
insect mortality rate [2]: ≥ 80%

CCS(=O)(=O)c1cc(-c2cc(Cl)c(Cl)c(Cl)c2)cnc1-c1noc(=O)n1-c1ccc(C(F)(F)F)cn1 [Compound 6]
insect mortality rate [1]: ≥ 80%
insect mortality rate [2]: ≥ 80%

CCS(=O)(=O)c1cc(-c2ccc(F)c(F)c2)cnc1-c1noc(=O)n1-c1ccc(C(F)(F)F)cn1 [Compound 58]
insect mortality rate [1]: ≥ 80%
insect mortality rate [2]: ≥ 80%

CCS(=O)(=O)c1cc(-c2cc(F)cc(F)c2)cnc1-c1noc(=O)n1-c1ccc(C(F)(F)C(F)(F)F)cn1 [Compound 21]
insect mortality rate [1]: ≥ 80%
insect mortality rate [2]: ≥ 80%

CCS(=O)(=O)c1cc2cc(-c3ccc(OC(F)(F)F)cc3)ccc2nc1-c1noc(=O)n1-c1ccc(C(F)(F)F)cn1 [Compound 178]
insect mortality rate [1]: ≥ 80%
insect mortality rate [2]: ≥ 80%

CCS(=O)(=O)c1cc(-c2cc(F)cc(F)c2)cnc1-c1noc(=O)n1-c1cc(C(F)(F)F)ccn1 [Compound 45]
insect mortality rate [1]: ≥ 80%
insect mortality rate [2]: ≥ 80%

CCS(=O)(=O)c1cc(C#CC2CC2)cnc1-c1noc(=O)n1-c1cc(C(F)(F)F)ccn1 [Compound 111]
insect mortality rate [1]: ≥ 80%
insect mortality rate [2]: ≥ 80%

CCS(=O)(=O)c1cc(-c2ccc(OC(F)(F)F)cc2)c(C)nc1-c1noc(=O)n1-c1cc(C(F)(F)F)ccn1 [Compound 69]
insect mortality rate [1]: ≥ 80%
insect mortality rate [2]: ≥ 80%

CCS(=O)(=O)c1cc(-c2ccc(F)cc2)cnc1-c1noc(=O)n1-c1cc(Br)ccn1 [Compound 81]
insect mortality rate [1]: ≥ 80%
insect mortality rate [2]: ≥ 80%

CCS(=O)(=O)c1cc2cc(Cl)c(Cl)cc2nc1-c1noc(=O)n1-c1ccc(C(F)(F)F)cn1 [Compound 189]
insect mortality rate [2]: ≥ 80%
